Test [1] concerns the target T1, Irgb6 (Yeast Two-Hybrid fusion) (mouse) (UniProt Q62293).
T1 sequence: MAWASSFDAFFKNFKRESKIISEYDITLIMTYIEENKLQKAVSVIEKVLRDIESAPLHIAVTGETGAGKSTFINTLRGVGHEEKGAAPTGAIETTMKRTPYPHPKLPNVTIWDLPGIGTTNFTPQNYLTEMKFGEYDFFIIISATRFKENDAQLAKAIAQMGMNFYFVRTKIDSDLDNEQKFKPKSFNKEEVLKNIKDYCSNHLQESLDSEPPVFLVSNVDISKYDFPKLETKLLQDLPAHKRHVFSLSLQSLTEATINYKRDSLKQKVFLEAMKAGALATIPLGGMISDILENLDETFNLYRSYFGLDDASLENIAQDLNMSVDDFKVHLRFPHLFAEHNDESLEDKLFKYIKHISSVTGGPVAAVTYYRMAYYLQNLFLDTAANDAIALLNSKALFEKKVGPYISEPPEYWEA
Kind of test: two-hybrid; S. cerevisiae PJ69-4α; Gal4 AD and BD fusions; colony growth on SD/-Leu/-Trp/-His with 0.5 mM 3-AT, 30°C, 5 to 14 days.

In test [2] the target is T2, Irgb6 (β-lactamase fragment fusion for PCA) (mouse) (UniProt Q62293).
T2 sequence: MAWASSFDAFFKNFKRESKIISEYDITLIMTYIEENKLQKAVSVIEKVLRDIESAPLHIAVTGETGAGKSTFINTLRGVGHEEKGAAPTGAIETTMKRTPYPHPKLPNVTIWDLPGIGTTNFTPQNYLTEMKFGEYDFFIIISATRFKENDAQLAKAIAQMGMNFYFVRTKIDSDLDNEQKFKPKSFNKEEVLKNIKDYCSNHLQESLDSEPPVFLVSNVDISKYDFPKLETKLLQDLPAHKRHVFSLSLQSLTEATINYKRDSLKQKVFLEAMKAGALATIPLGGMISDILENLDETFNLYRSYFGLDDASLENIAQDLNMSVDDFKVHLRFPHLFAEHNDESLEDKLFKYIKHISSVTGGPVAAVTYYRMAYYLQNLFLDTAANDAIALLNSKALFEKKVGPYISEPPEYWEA
In words: split reporter; Protein-fragment complementation assay (PCA): proteins fused to BlaN or BlaC fragments of TEM-1 β-lactamase, co-transfected in HEK293T cells, lysed 24 h later; nitrocefin hydrolysis in the supernatant read as absorbance at 495 nm.

Results are given in words; binding and its absence hold for the method and conditions named. For some assays here: In cells and extracts the contact can be indirect. Some binding calls cover weakened binding; strength is not graded here. Tags and fused reporters may be left off the sequences shown.

B1: GBP5 (Yeast Two-Hybrid fusion) (protein, UniProt Q8CFB4 1-590)
chain: MAPEIHMPEPLCLIGSTEGHLVTNQEALKILSAITQPVVVVAIVGLYRTGKSYLMNKLAGKEKGFSVGSTVQSHTKGIWMWCVPHPQKPDHTLVLLDTEGLGDVEKDDKKNDTQIFALAILLSSTFVYNTMNKIDQGAIDLLHNVTELTDLLRTRNSSDSNQTEGEGPADMSFFPDLVWTLRDFFLDLQANGHAITSDEYLENSLKLKQGSDERTQTFNLPRLCIQKFFPVKKCFVFDAPALGSKLSQLPTLSNEELNSDFVQDLSEFCSHIFTQSKTKTLPGGIQVNGPRLESLVLTYVDAINSGALPSIENTVVTLARRENSAAVQKAIGHYDQLMSEKVQLPTETLQELLDLHRTCEREAIEIFRKHSFKDEGEFFQKELESLLSAKQDEICKKNADASAALCSTLLGSIFKPLEQEVAQEFYHKPGGHKLFLQRMEQLKANYRQQPGKGTQAEEVLQTYLNAKETVSRTILQTDQVLTDKEIQSKAEQERAEAARLEAQRLEAIRIQEEQRKAEMERQHQEQLRQIALEKARVAQEQQWILKQRAQEEADRIKAEQEAQLRALQQQLQHMREMNHHRRHHHDCVIS
In the case of B1, the binding entry in test [1] was “binds”.

B2: GBP5 (β-lactamase fragment fusion for PCA) (protein, UniProt Q8CFB4 1-590)
chain: MAPEIHMPEPLCLIGSTEGHLVTNQEALKILSAITQPVVVVAIVGLYRTGKSYLMNKLAGKEKGFSVGSTVQSHTKGIWMWCVPHPQKPDHTLVLLDTEGLGDVEKDDKKNDTQIFALAILLSSTFVYNTMNKIDQGAIDLLHNVTELTDLLRTRNSSDSNQTEGEGPADMSFFPDLVWTLRDFFLDLQANGHAITSDEYLENSLKLKQGSDERTQTFNLPRLCIQKFFPVKKCFVFDAPALGSKLSQLPTLSNEELNSDFVQDLSEFCSHIFTQSKTKTLPGGIQVNGPRLESLVLTYVDAINSGALPSIENTVVTLARRENSAAVQKAIGHYDQLMSEKVQLPTETLQELLDLHRTCEREAIEIFRKHSFKDEGEFFQKELESLLSAKQDEICKKNADASAALCSTLLGSIFKPLEQEVAQEFYHKPGGHKLFLQRMEQLKANYRQQPGKGTQAEEVLQTYLNAKETVSRTILQTDQVLTDKEIQSKAEQERAEAARLEAQRLEAIRIQEEQRKAEMERQHQEQLRQIALEKARVAQEQQWILKQRAQEEADRIKAEQEAQLRALQQQLQHMREMNHHRRHHHDCVIS
With B2, in test [2], the binding entry is reported as “binds”.
